Results are given in words; binding and its absence hold for the method and conditions named. In cells and extracts the contact can be indirect. A result given as binding can be weak or reduced; the word gives no strength. Tags and fused reporters may be left off the sequences shown.

To fix the notation:
T1: nucleostemin-like 1 (NSN1), YFP^N or YFP^C fusion for BiFC (Arabidopsis thaliana) (UniProt Q9M8Z5)
T1 sequence: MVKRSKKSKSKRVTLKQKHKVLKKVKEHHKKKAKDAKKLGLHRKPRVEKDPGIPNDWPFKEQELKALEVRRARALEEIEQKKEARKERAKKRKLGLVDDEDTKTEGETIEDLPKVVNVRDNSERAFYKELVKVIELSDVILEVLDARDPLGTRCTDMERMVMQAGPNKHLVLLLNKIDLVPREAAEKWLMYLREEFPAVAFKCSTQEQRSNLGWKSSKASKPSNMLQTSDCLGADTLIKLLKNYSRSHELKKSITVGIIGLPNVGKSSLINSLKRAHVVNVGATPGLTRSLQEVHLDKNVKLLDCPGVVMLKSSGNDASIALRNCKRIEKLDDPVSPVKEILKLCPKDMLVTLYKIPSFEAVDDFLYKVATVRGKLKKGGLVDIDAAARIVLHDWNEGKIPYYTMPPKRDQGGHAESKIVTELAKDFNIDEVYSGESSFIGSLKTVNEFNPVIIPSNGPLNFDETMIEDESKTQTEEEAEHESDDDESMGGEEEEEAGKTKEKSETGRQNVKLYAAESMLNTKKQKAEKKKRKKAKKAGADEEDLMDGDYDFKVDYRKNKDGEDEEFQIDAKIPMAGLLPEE

B1: EBNA1 binding protein 2 (EBP2), YFP^N or YFP^C fusion for BiFC (protein, UniProt Q9LUJ5 1-293)
chain: MSLEEDIVSDDEMNMIDEDDATDSEAESLSDSDTENEITEKLAEPTKTAIYNRDGLLDKLQDISWPEDVDWTHKLTVEIDQGGAVDVNDDLARETAFYTQALEGTREAFGKLNEMGVNFLRPANYYAEMVKSDVHMEKVKSRLLHEKKQIEESEERRKARDNKRMAKEVQSQKMKERAKEKKDNIESVKKWRKQRQQSGFSDKAGEPELDFESGKSFQRGGGKKRPGVSPGDRSGGKGRPTSRMGNKKREFRDSKFGHGGRKGLSKQNTAETTNDFKGGFRGGKASGNKRQKR
B2: Arabidopsis Pescadillo (PES), YFP^N or YFP^C fusion for BiFC (protein, UniProt Q9LYK7 1-590)
chain: MPKHYRPTGKKKEGNAARYMTRSQALKHLQVNLNLFRRLCIVKGIFPREPKKKIKGNHHTYYHVKDIAFLMHEPLLEKFREIKTYQKKVKKAKAKKNEELARLLLTRQPTYKLDRLIRERYPTFIDALRDLDDCLTMVHLFAVLPASDRENLEVKRVHNCRRLTHEWQAYISRSHALRKVFVSVKGIYYQAEIEGQKITWLTPHAIQQVFTNDVDFGVLLTFLEFYETLLAFINFKLYHSLNVKYPPILDSRLEALAADLYALSRYIDASSRGMAVEPKVDASFSSQSNDREESELRLAQLQHQLPSSEPGALMHLVADNNKEVEEDEETRVCKSLFKDLKFFLSREVPRESLQLVITAFGGMVSWEGEGAPFKEDDESITHHIIDKPSAGHLYLSRVYVQPQWIYDCVNARIILPTEKYLVGRIPPPHLSPFVDNEAEGYVPDYAETIKRLQAAARNEVLPLPGVGKEDLEDPQNLLYAGVMSRAEEAEAAKNKKKMAAQEKQYHEELKMEINGSKDVVAPVLAEGEGEESVPDAMQIAQEDADMPKVLMSRKKRKLYDAMKISQSRKRSGVEIIEQRKKRLNDTQPSS

The target of the first assay is T1, nucleostemin-like 1 (NSN1), YFP^N or YFP^C fusion for BiFC (Arabidopsis thaliana). Put plainly: split reporter; BiFC: proteins co-expressed as YFP^N and YFP^C fusions in N. benthamiana leaves by agroinfiltration; after 48 h protoplasts observed by confocal laser scanning microscopy.
“N-terminal PES-N domain of PES, BiFC fusion (Arabidopsis) (domain or fragment)”: the binding entry is listed as “binds”. Turning to “ribosomal protein RPL11, YFP^N fusion for BiFC”, the binding entry is “no binding”. On the same count and under the same terms, the entry for ribosomal protein RPL13, BiFC fusion is “binds”. ribosomal protein RPL14, BiFC fusion: the binding result was “binds”. In the case of ribosomal protein RPS6, BiFC fusion, the binding result is given as “binds”. On the same count and under the same terms, the entry for “∆PES-N (a PES mutant lacking the PES-N domain), BiFC fusion (Arabidopsis) (domain or fragment)” is “binds”.

The target in a further assay is NSN1 with a deletion of the C-terminal domain (∆C), BiFC fusion (Arabidopsis thaliana). Described as above.
As to B1, the binding entry is on record as “binds”. On the same count and under the same terms, the entry for B2 is “binds”.

A further assay addresses NSN1 with a deletion of the GTP-binding motifs G4-G3 (∆GD), BiFC fusion (Arabidopsis thaliana) (UniProt Q9M8Z5). The description is as above.
In the case of B1, the binding result is recorded as “binds”. Still for that read-out and setting: the entry for B2 is “binds”.

These data come from publication PMC4588883.
